Measured values as given in PMC11830286, “Protein identification using Cryo-EM and artificial intelligence guides improved sample purification” (Journal of Structural Biology: X, 2025).
No constants are given. Whether binding was seen depends on the method and setting. Some entries that bind do so weakly or less than the wild type.

Tests used:
[1] = target: dihydrolipoamide succinyltransferase (DLST) (E. coli BL21 (DE3)) (UniProt P0AFG6); experiment: negative-stain EM; SEC-purified peak at 0.10 mg/mL, 2 % uranyl formate; 2D classes and 3D refinement with octahedral symmetry; both purified
[2] = target: dihydrolipoamide succinyltransferase (DLST) (E. coli BL21 (DE3)) (UniProt P0AFG6); experiment: cryo-EM structure; single particle analysis of the SEC peak of the nanoparticle preparation purified without glycine or arginine; octahedral symmetry enforced, 2.51 Å; about 0.3 mg/mL, buffer with DDM; both purified

B1: dihydrolipoamide succinyltransferase (DLST) (enzyme, E. coli BL21 (DE3), UniProt P0AFG6 1-405, looked up)
chain: MSSVDILVPDLPESVADATVATWHKKPGDAVVRDEVLVEIETDKVVLEVPASADGILDAVLEDEGTTVTSRQILGRLREGNSAGKETSAKSEEKASTPAQRQQASLEEQNNDALSPAIRRLLAEHNLDASAIKGTGVGGRLTREDVEKHLAKAPAKESAPAAAAPAAQPALAARSEKRVPMTRLRKRVAERLLEAKNSTAMLTTFNEVNMKPIMDLRKQYGEAFEKRHGIRLGFMSFYVKAVVEALKRYPEVNASIDGDDVVYHNYFDVSMAVSTPRGLVTPVLRDVDTLGMADIEKKIKELAVKGRDGKLTVEDLTGGNFTITNGGVFGSLMSTPIINPPQSAILGMHAIKDRPMAVNGQVEILPMMYLALSYDHRLIDGRESVGFLVTIKELLEDPTRLLLDV
notes: dihydrolipoamide succinyltransferase (DLST) of E. coli BL21(DE3), UniProt A0A140NDX4; host protein, no construct; the first 170 residues were unresolved in the cryo-EM map and only the catalytic domain was modelled; also called dihydrolipoyllysine-residue succinyltransferase; contaminant nanoparticle; source: endogenous, E. coli BL21(DE3) expression host; co-purified as a contaminant with …
[1]
  binding: binds
[2]
  binding: binds
